Some entries share one result that the patent states for a list of compounds. At least one structure is not confirmed: it was looked up by name or label, or the drawing left a doubt.
Assays:
[1] = tested on: diamondback moth (Plutella xylostella); assay: Test A: control of diamondback moth, foliar spray on radish plant; assay type: in vivo; conditions: sprayed at 50 ppm, 6 days, visual assessment of foliage consumed
[2] = tested on: fall armyworm (Spodopiera frugiperda); assay: Test B: control of fall armyworm, foliar spray on corn plant; assay type: in vivo; conditions: sprayed at 50 ppm, 6 days, visual rating

| SMILES | feeding damage (very good to excellent levels of plant protection) [1] | feeding damage (excellent levels of plant protection) [2] |
| --- | --- | --- |
| Cc1cc(C#N)cc(C(=O)NC2CC2)c1NC(=O)c1cc(Br)nn1-c1ncccc1Cl [Compound 73] | ≤ 20% | ≤ 20% |
| Cc1cc(C#N)cc(C(=O)NCC2CC2)c1NC(=O)c1cc(Br)nn1-c1ncccc1Cl [Compound 76] | ≤ 20% | ≤ 20% |
| Cc1cc(C#N)cc(C(=O)NC(C)C[S+](C)[O-])c1NC(=O)c1cc(Br)nn1-c1ncccc1Cl (stereo not drawn) [Compound 78] | ≤ 20% | ≤ 20% |
| CNC(=O)c1cc(C#N)cc(C)c1NC(=O)c1cc(Br)nn1-c1ncc(Cl)cc1Cl [Compound 98] | ≤ 20% | ≤ 20% |
| CCNC(=O)c1cc(C#N)cc(C)c1NC(=O)c1cc(Br)nn1-c1ncc(Cl)cc1Cl [Compound 99] | ≤ 20% | ≤ 20% |
| Cc1cc(C#N)cc(C(=O)NC(C)C)c1NC(=O)c1cc(Br)nn1-c1ncc(Cl)cc1Cl [Compound 100] | ≤ 20% | ≤ 20% |
| CCNC(=O)c1cc(C#N)cc(C)c1NC(=O)c1cc(Cl)nn1-c1ncc(Cl)cc1Cl [Compound 101] | ≤ 20% | ≤ 20% |
| Cc1cc(C#N)cc(C(=O)NC(C)C)c1NC(=O)c1cc(Cl)nn1-c1ncc(Cl)cc1Cl [Compound 102] | ≤ 20% | ≤ 20% |
| CNC(=O)c1cc(C#N)cc(C)c1NC(=O)c1cc(Cl)nn1-c1ncc(Cl)cc1Cl [Compound 103] | ≤ 20% | ≤ 20% |

— US7875634B2, “Cyano anthranilamide insecticides” (E. I. du Pont de Nemours and Company, priority 2003, dated 2011)
